Measured values as given in patent publication US11220671B2, “Methods for the maturation of cardiomyocytes on amniotic fluid cell-derived ECM, cellular constructs, and uses for cardiotoxicity and proarrhythmic screening of drug compounds” (STEMBIOSYS, INC., priority 2019, dated 2022).

B1: MARCKS-related protein (protein, UniProt P49006 2-195, looked up)
MARCKS-related protein: GSQSSKAPRGDVTAEEAAGASPAKANGQENGHVKSNGDLSPKGEGESPPVNGTDEAAGATGDAIEPAPPSQGAEAKGEVPPKETPKKKKKFSFKKPFKLSGLSFKRNRKEGGGDSSASSPTEEEQEQGEIGACSDEGTAQEGKAAATPESQEPQAKGAEASAASEEEAGPQATEPSTPSGPESGPTPASAEQNE
B2: Laminin subunit beta-3 (protein, UniProt Q13751 18-1172, looked up)
Laminin subunit beta-3: QQACSRGACYPPVGDLLVGRTRFLRASSTCGLTKPETYCTQYGEWQMKCCKCDSRQPHNYYSHRVENVASSSGPMRWWQSQNDVNPVSLQLDLDRRFQLQEVMMEFQGPMPAGMLIERSSDFGKTWRVYQYLAADCTSTFPRVRQGRPQSWQDVRCQSLPQRPNARLNGGKVQLNLMDLVSGIPATQSQKIQEVGEITNLRVNFTRLAPVPQRGYHPPSAYYAVSQLRLQGSCFCHGHADRCAPKPGASAGPSTAVQVHDVCVCQHNTAGPNCERCAPFYNNRPWRPAEGQDAHECQRCDCNGHSETCHFDPAVFAASQGAYGGVCDNCRDHTEGKNCERCQLHYFRNRRPGASIQETCISCECDPDGAVPGAPCDPVTGQCVCKEHVQGERCDLCKPGFTGLTYANPQGCHRCDCNILGSRRDMPCDEESGRCLCLPNVVGPKCDQCAPYHWKLASGQGCEPCACDPHNSLSPQCNQFTGQCPCREGFGGLMCSAAAIRQCPDRTYGDVATGCRACDCDFRGTEGPGCDKASGRCLCRPGLTGPRCDQCQRGYCNRYPVCVACHPCFQTYDADLREQALRFGRLRNATASLWSGPGLEDRGLASRILDAKSKIEQIRAVLSSPAVTEQEVAQVASAILSLRRTLQGLQLDLPLEEETLSLPRDLESLDRSFNGLLTMYQRKREQFEKISSADPSGAFRMLSTAYEQSAQAAQQVSDSSRLLDQLRDSRREAERLVRQAGGGGGTGSPKLVALRLEMSSLPDLTPTFNKLCGNSRQMACTPISCPGELCPQDNGTACGSRCRGVLPRAGGAFLMAGQVAEQLRGFNAQLQRTRQMIRAAEESASQIQSSAQRLETQVSASRSQMEEDVRRTRLLIQQVRDFLTDPDTDAATIQEVSEAVLALWLPTDSATVLQKMNEIQAIAARLPNVDLVLSQTKQDIARARRLQAEAEEARSRAHAVEGQVEDVVGNLRQGTVALQEAQDTMQGTSRSLRLIQDRVAEVQQVLRPAEKLVTSMTKQLGDFWTRMEELRHQARQQGAEAVQAQQLAEGASEQALSAQEGFERIKQKYAELKDRLGQSSMLGEQGARIQSVKTEAEELFGETMEMMDRMKDMELELLRGSQAIMLRSADLTGLEKRVEQIRDHINGRVLYYATCK
B3: Kinesin-like protein KIFC2 (protein, UniProt Q96AC6 1-838, looked up)
Kinesin-like protein KIFC2: MYAFYSLLIYIFYSLFRRDGGAAAAAEPGDPAQRARKPRGRRRPDLPAPELWTELTGLAASSEPEDGSEGAAEGRAAAVSLEEALLRLAEFLSVQLGAEESCGGPADLGQSGEVPSLLTVTSQLLALLAWLRSPRGRQALLQGTQPAPRVRPPSPDGSTSQEESPSHFTAVPGEPLGDETQGQQPLQLEEDQRAWQRLEQLILGQLEELKQQLEQQEEELGRLRLGVGATDSEKRVQHLTLENEALKQSLSLMRDLLLHWGPGPPIRAPQEEAEALLELQGRLQEAQDTTEALRAQLGVQEVQLQGLQGALQQLQQETEQNCRRELQQMHGQLAGLRARMASLRQGCGDLRGLVSTFTQSCQGSLSEARGQVSWALGALSSGGPGTQLPEGQQGPPAGCPGRLPELKGNIRVLCRLRPGTSSSLVSVEPGPGGTVTTCYRGRHRRFRLDWVFPPDASQEEVFRELEPAVLSCLRGYSVCIFTYGQTGTGKTYSMEGPPEDPGIVPRALQSLFREMGAGRQHRVTLSMVEIYNEAVRDLLAPGPPERLAVRQGPEGQGGIQVAGLTHWDVPNLETLHQMLKLGRSNRATAATAMNQRSSRSHALVTLTLRAASPPRAPGTAGTLHLVDLAGSERARKAGAAGPPRGDPDGARRLREAQTINRSLLALGGVMAALRAHRPHVPFRDSQLTRLLQPALGPGTTAVLLLQVGAGAGQVCACRSPPTRARPPAPLARRSPRGRRISGRQSAPSSSPTEWVKWSWGQPGAAGSRAPPGRLLPSAPTLRSPGPPAPLRRPLAVLHAPVPTTARARLSRPQRACPSSPGSRPCPWGLRPGLCWQRR
B4: Magnesium transporter protein 1 (protein, UniProt Q9H0U3 30-335, looked up)
Dolichyl-diphosphooligosacchar …: QRKKEMVLSEKVSQLMEWTNKRPVIRMNGDKFRRLVKAPPRNYSVIVMFTALQLHRQCVVCKQADEEFQILANSWRYSSAFTNRIFFAMVDFDEGSDVFQMLNMNSAPTFINFPAKGKPKRGDTYELQVRGFSAEQIARWIADRTDVNIRVIRPPNYAGPLMLGLLLAVIGGLVYLRRSNMEFLFNKTGWAFAALCFVLAMTSGQMWNHIRGPPYAHKNPHTGHVNYIHGSSQAQFVAETHIVLLFNGGVTLGMVLLCEAATSDMDIGKRKIMCVAGIGLVVLFFSWMLSIFRSKYHGYPYSFLMS
B5: Keratin, type II cytoskeletal 7 (protein, UniProt P08729 2-469, looked up)
Keratin, type II cytoskeletal …: SIHFSSPVFTSRSAAFSGRGAQVRLSSARPGGLGSSSLYGLGASRPRVAVRSAYGGPVGAGIREVTINQSLLAPLRLDADPSLQRVRQEESEQIKTLNNKFASFIDKVRFLEQQNKLLETKWTLLQEQKSAKSSRLPDIFEAQIAGLRGQLEALQVDGGRLEAELRSMQDVVEDFKNKYEDEINHRTAAENEFVVLKKDVDAAYMSKVELEAKVDALNDEINFLRTLNETELTELQSQISDTSVVLSMDNSRSLDLDGIIAEVKAQYEEMAKCSRAEAEAWYQTKFETLQAQAGKHGDDLRNTRNEISEMNRAIQRLQAEIDNIKNQRAKLEAAIAEAEERGELALKDARAKQEELEAALQRGKQDMARQLREYQELMSVKLALDIEIATYRKLLEGEESRLAGDGVGAVNISVMNSTGGSSSGGGIGLTLGGTMGSNALSFSSSAGPGLLKAYSIRTASASRRSARD
B6: Ladinin-1 (protein, UniProt O00515 1-517, looked up)
Ladinin-1: MAVSRKDWSALSSLARQRTLEDEEEQERERRRRHRNLSSTTDDEAPRLSQNGDRQASASERLPSVEEAEVPKPLPPASKDEDEDIQSILRTRQERRQRRQVVEAAQAPIQERLEAEEGRNSLSPVQATQKPLVSKKELEIPPRRRLSREQRGPWALEEESLVGREPEERKKGVPEKSPVLEKSSMPKKTAPEKSLVSDKTSISEKVLASEKTSLSEKIAVSEKRNSSEKKSVLEKTSVSEKSLAPGMALGSGRRLVSEKASIFEKALASEKSPTADAKPAPKRATASEQPLAQEPPASGGSPATTKEQRGRALPGKNLPSLAKQGASDPPTVASRLPPVTLQVKIPSKEEEADMSSPTQRTYSSSLKRSSPRTISFRMKPKKENSETTLTRSASMKLPDNTVKLGEKLERYHTAIRRSESVKSRGLPCTELFVAPVGVASKRHLFEKELAGQSRAEPASSRKENLRLSGVVTSRLNLWISRTQESGDQDPQEAQKASSATERTQWGQKSDSSLDAEV
B7: Keratin, type II cuticular Hb5 (protein, UniProt P78386 1-507, looked up)
Keratin, type II cuticular Hb5: MSCRSYRISSGCGVTRNFSSCSAVAPKTGNRCCISAAPYRGVSCYRGLTGFGSRSLCNLGSCGPRIAVGGFRAGSCGRSFGYRSGGVCGPSPPCITTVSVNESLLTPLNLEIDPNAQCVKQEEKEQIKSLNSRFAAFIDKVRFLEQQNKLLETKWQFYQNQRCCESNLEPLFSGYIETLRREAECVEADSGRLASELNHVQEVLEGYKKKYEEEVALRATAENEFVVLKKDVDCAYLRKSDLEANVEALVEESSFLRRLYEEEIRVLQAHISDTSVIVKMDNSRDLNMDCIIAEIKAQYDDVASRSRAEAESWYRSKCEEMKATVIRHGETLRRTKEEINELNRMIQRLTAEIENAKCQRAKLEAAVAEAEQQGEAALSDARCKLAELEGALQKAKQDMACLLKEYQEVMNSKLGLDIEIATYRRLLEGEEHRLCEGVGSVNVCVSSSRGGVSCGGLSYSTTPGRQITSGPSAIGGSITVVAPDSCAPCQPRSSSFSCGSSRSVRFA
B8: Keratin, type II cytoskeletal 1 (protein, UniProt P04264 2-644, looked up)
Keratin, type II cytoskeletal …: SRQFSSRSGYRSGGGFSSGSAGIINYQRRTTSSSTRRSGGGGGRFSSCGGGGGSFGAGGGFGSRSLVNLGGSKSISISVARGGGRGSGFGGGYGGGGFGGGGFGGGGFGGGGIGGGGFGGFGSGGGGFGGGGFGGGGYGGGYGPVCPPGGIQEVTINQSLLQPLNVEIDPEIQKVKSREREQIKSLNNQFASFIDKVRFLEQQNQVLQTKWELLQQVDTSTRTHNLEPYFESFINNLRRRVDQLKSDQSRLDSELKNMQDMVEDYRNKYEDEINKRTNAENEFVTIKKDVDGAYMTKVDLQAKLDNLQQEIDFLTALYQAELSQMQTQISETNVILSMDNNRSLDLDSIIAEVKAQYEDIAQKSKAEAESLYQSKYEELQITAGRHGDSVRNSKIEISELNRVIQRLRSEIDNVKKQISNLQQSISDAEQRGENALKDAKNKLNDLEDALQQAKEDLARLLRDYQELMNTKLALDLEIATYRTLLEGEESRMSGECAPNVSVSVSTSHTTISGGGSRGGGGGGYGSGGSSYGSGGGSYGSGGGGGGGRGSYGSGGSSYGSGGGSYGSGGGGGGHGSYGSGSSSGGYRGGSGGGGGGSSGGRGSGGGSSGGSIGGRGSSSGGVKSSGGSSSVKFVSTTYSGVTR

Assay: Composition of amniotic fluid cell-derived ECM by mass spectrometry (total spectra count)
Settings: amniotic fluid cell-derived ECM Matrix A, mass spectrometry; label = protein component
For B1, the “Total Spectra Count Matrix A” value was 0. In the case of B2, the “Total Spectra Count Matrix A” value is reported as 0. For B3, the “Total Spectra Count Matrix A” value was 0. For B4, the “Total Spectra Count Matrix A” value was 0. For B5, the “Total Spectra Count Matrix A” value was 0. In the case of B6, the “Total Spectra Count Matrix A” value is reported as 0. For B7, the “Total Spectra Count Matrix A” value was 0. In the case of B8, the “Total Spectra Count Matrix A” value is reported as 0.

Same assay, conditions: amniotic fluid cell-derived ECM Matrix B, mass spectrometry; label = protein component
With B1 the “Total Spectra Count Matrix B” value was 4. With B2 the “Total Spectra Count Matrix B” value was 10. In the case of B3, the “Total Spectra Count Matrix B” value is reported as 2. In the case of B4, the “Total Spectra Count Matrix B” value is reported as 4. For B5, the “Total Spectra Count Matrix B” value was 0. In the case of B6, the “Total Spectra Count Matrix B” value is reported as 0. In the case of B7, the “Total Spectra Count Matrix B” value is reported as 3. For B8, the “Total Spectra Count Matrix B” value was 497.

Same assay, conditions: amniotic fluid cell-derived ECM Matrix C, mass spectrometry; label = protein component
In the case of B1, the “Total Spectra Count Matrix C” value is reported as 0. With B2 the “Total Spectra Count Matrix C” value was 0. With B3 the “Total Spectra Count Matrix C” value was 0. In the case of B4, the “Total Spectra Count Matrix C” value is reported as 1. In the case of B5, the “Total Spectra Count Matrix C” value is reported as 0. For B6, the “Total Spectra Count Matrix C” value was 0. For B7, the “Total Spectra Count Matrix C” value was 0. With B8 the “Total Spectra Count Matrix C” value was 0.

Same assay, conditions: amniotic fluid cell-derived ECM Matrix D, mass spectrometry; label = protein component
With B1 the “Total Spectra Count Matrix D” value was 0. With B2 the “Total Spectra Count Matrix D” value was 0. In the case of B3, the “Total Spectra Count Matrix D” value is reported as 1. With B4 the “Total Spectra Count Matrix D” value was 1. For B5, the “Total Spectra Count Matrix D” value was 135. For B6, the “Total Spectra Count Matrix D” value was 6. In the case of B7, the “Total Spectra Count Matrix D” value is reported as 0. In the case of B8, the “Total Spectra Count Matrix D” value is reported as 0.
